# Laboratory results reported in the supplement of paper PMC12889115.
# The list shows a part of the results. Values are raw readings; no control value is given beside them.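 First-pass screen: polymyxin B was added at a level that permeabilizes the Salmonella outer membrane while sparing the inner membrane. DMSO wells, with and without polymyxin B, defined maximum growth. Because plates differed from one another, each plate's data were ranked separately and the compounds with the lowest OD600 were carried forward as hits.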
# Test system: Salmonella enterica serovar Typhimurium SL1344
# Assay: bacterial growth OD600 after 18 h with compound and polymyxin B; higher = more bacterial growth (less inhibition)
# Settings: 50 µM, Mueller-Hinton broth
SMILES,bacterial growth OD600 (polymyxin B 0.75 µg/mL),bacterial growth OD600 (polymyxin B 1 µg/mL)
COc1cccc(CC2(CCC(=O)NC(c3ccccc3)c3ccc(Cl)cc3)CCC(=O)N2)c1 (stereo unspecified),0.002,
CN(Cc1cccnc1)CC1(O)CCCN(Cc2ccc(F)cc2)C1=O (stereo unspecified),,1.03
O=C(CC1=CCCCC1)N1CCc2[nH]nc(-c3ccccc3F)c2C1,0.645,
COc1ccc(CC2(CCC(=O)NCCc3ccccc3Cl)CCC(=O)N2)c(F)c1 (stereo unspecified),0.825,
O=C(NCc1ccccc1)C1CC12CCN(C(=O)/C=C/c1ccccc1)CC2 (stereo unspecified),0.845,
O=C(CC1=CCCCC1)N1CCCC(CNC(=O)C2(c3ccc(Cl)cc3)CC2)C1 (stereo unspecified),0.601,
CC#CCN1C(=O)NC(CCc2ccccc2)(C2CCN(Cc3ccco3)CC2)C1=O (stereo unspecified),0.768,
COc1ccc(OC)c(-c2cc(Cl)c3c(c2)CC(CNC(=O)CSc2ccccn2)O3)c1 (stereo unspecified),0.006,
Cc1cc2nc(N3CCCN(Cc4ccc5ncccc5c4)CC3)nc(C)c2cc1C,0.587,
COc1ccc(CCN2CC(C(=O)N(C)Cc3c(C)n[nH]c3C)CCC2=O)cc1 (stereo unspecified),,0.875
O=C(c1ccco1)N1CCCN(Cc2nc(Cc3cccc(C(F)(F)F)c3)no2)CC1,,0.887
CCCCNc1ccc(C(=O)N2CCCN(c3ncccn3)CC2)cn1,,0.969
CCOC(=O)C1(CCCc2ccccc2)CCN(Cc2ccccn2)CC1,,0.765
Cc1cc(C)n(-c2ccc(NC(=O)C3CCCCN3C(=O)c3cc(C)on3)cc2)n1 (stereo unspecified),,0.896
CCCNC(=O)[C@H]1C[C@@](CC(C)C)(C(=O)OC)N(C)[C@H]1c1cccnc1,0.821,
CCc1csc(CNC(=O)c2ccc(N(C)Cc3cccs3)nc2)n1,0.913,

# Some of these compounds in order of count of non-hydrogen atoms, rising.
SMILES,bacterial growth OD600 (polymyxin B 0.75 µg/mL),bacterial growth OD600 (polymyxin B 1 µg/mL)
CCc1csc(CNC(=O)c2ccc(N(C)Cc3cccs3)nc2)n1,0.913,
CCOC(=O)C1(CCCc2ccccc2)CCN(Cc2ccccn2)CC1,,0.765
O=C(NCc1ccccc1)C1CC12CCN(C(=O)/C=C/c1ccccc1)CC2 (stereo unspecified),0.845,

# Following part:

SMILES,bacterial growth OD600 (polymyxin B 0.75 µg/mL),bacterial growth OD600 (polymyxin B 1 µg/mL)
CC(=O)c1cccc(OCc2cc(C(=O)N(C)C(C)c3cccs3)n[nH]2)c1 (stereo unspecified),,0.672
Cc1ccccc1N1C(=O)CN(C(=O)CCCc2cccs2)CC1C (stereo unspecified),0.919,
COc1cc(C(=O)N(Cc2cccc(OCCc3cccs3)c2)C2CCCC2)cc(OC)c1OC,0.002,
O=C(c1cn(CCC2CCCCC2)nn1)N1CCN(C(=O)c2ccco2)CC1,,0.808
CC(C)NC1CCN(c2ccc(C(=O)N3CCCC(O)C3)cc2)CC1 (stereo unspecified),1.03,
C=CCC(=O)N1CCC2(CCCN(Cc3ccccc3F)C2=O)C1 (stereo unspecified),,0.963
CC(C)N(C)Cc1nnnn1CC(=O)N1CCCC(C(=O)c2ccccc2)C1 (stereo unspecified),0.793,
COC(=O)c1ccc(CN2CCCC(N3CCN(c4ccccc4C)CC3)C2)cc1 (stereo unspecified),,0.936
CC(=O)c1ccc(C(=O)N2CCCC(CCC(=O)NCc3ccccc3Cl)C2)s1 (stereo unspecified),,1.02
CN(CCc1ccccc1)C(=O)c1nc2sccn2c1CN1CCCC1c1nccs1 (stereo unspecified),,0.888
CC1(C)CC(NC(=O)c2cc(COc3ccccc3F)[nH]n2)CCO1 (stereo unspecified),0.809,
c1ccc(-c2noc3c2CN(Cc2cccn2-c2ccccn2)CC3)cc1,0.709,
CN1CCCC(CN(CCc2ccccc2)C(=O)c2cccc(Cl)c2)C1 (stereo unspecified),,0.775
COc1ccc(F)c(CN2CCCC(c3nc(-c4ccncc4)ncc3-c3ccccc3C)C2)c1 (stereo unspecified),0.401,
Cc1ccc(CCNC2CCCN(c3nc(C)c4ccc(S(C)(=O)=O)cc4n3)CC2)cc1 (stereo unspecified),0.856,
